Results as given in patent publication US12134640B2, “Polypeptides and medical uses thereof” (priority 2016, dated 2024).
Some compounds share one wording; it may come from a single statement.

Assay: Circular dichroism in the presence of LPS
Settings: presence of LPS (0.2 mg/ml)

| Sequence | secondary structure (CD spectra) |
| --- | --- |
| FFLKDFSTKRQIIDAINKVVYKGGR (FFL25 peptide) [peptide derived from VWA domain of collagen type VI α3-chain] | mixture of alpha helix and beta sheet |
| VTTEIRFADSKRKSVLLDKIKNLQVALTSK (VTT30 peptide) [peptide derived from VWA domain of collagen type VI α3-chain] | mixture of alpha helix and beta sheet |
| GVRPDGFAHIRDFVSRIVRRLNIGPSKV (GVR28 peptide) [peptide derived from VWA domain of collagen type VI α3-chain] | mixture of alpha helix and beta sheet |
| FYLKTYRSQAPVLDAIRRLRLRGGS (FYL25 peptide) [peptide derived from VWA domain of collagen type VI α3-chain] | mixture of alpha helix and beta sheet |
